# Construct, isoform or probe ends are uncertain for at least one entry. Tags and fusion partners may be left off the protein sequences shown.
# Target: T1, THAP domain of human THAP1 (THAP-His6) (Homo sapiens) (UniProt Q9NVV9)
# T1 sequence: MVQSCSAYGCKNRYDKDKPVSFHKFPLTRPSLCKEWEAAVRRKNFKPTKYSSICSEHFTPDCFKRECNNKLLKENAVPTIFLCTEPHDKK
# Test: SELEX
# Settings: 12 rounds; purified recombinant protein; protein details: C-terminal His6 (pET-21c); variant of SELEX random pool 62-mer
row,Sequence,selection result
1,CTGCCAGTACATAGTGTGGGCAA (double strand) [ER-11 selected 2],selected
2,CTGCCAGTAGATACTGTGGGCAA (double strand) [ER-11 selected 4],selected
3,CTGCCAGTAGTAAGTGTGGGCAG (double strand) [ER-11 selected 9],selected
4,GGGCAAACTACTGGCAA (double strand) [DR-5 selected 4],selected
5,GGGCAAACTGTGGGCAT (double strand) [DR-5 selected 2],selected
6,GGGCAAAGTACTGGCAA (double strand) [DR-5 selected 9],selected
7,GGGCAACACTACTGGCAA (double strand) [DR-5 selected 8],selected
8,GGGCAACTGTGGGCAA (double strand) [DR-5 selected 7],selected
9,GGGCATGTACTGGCAA (double strand) [DR-5 selected 6],selected
10,GGGCCAGTTCGTTGCAA (double strand) [DR-5 selected 5],selected
11,TTGCCAGTACCTACTAAGGGCAA (double strand) [ER-11 selected 7],selected
12,TTGCCAGTAGTTAGGTGTGGGCGA (double strand) [ER-11 selected 5],selected
13,TTGCCAGTAGTTAGTGTGGGCAA (double strand) [ER-11 selected 6],selected
14,TTGCCAGTAGTTAGTGTGGGCAG (double strand) [ER-11 selected 8],selected
